Experimental data taken from paper doi:10.1101/2023.04.08.536099.
These are yes or no findings as the source states them, for the method shown. In cells and extracts the contact can be indirect. Here binding means that the protein was enriched with, or labelled near, the bait; the list need not be complete. A no says only that the protein was not detected with the bait.

The chains behind the UniProt entries cited, without tags or fusion partners. Residues count along the entry.
UniProt P29965: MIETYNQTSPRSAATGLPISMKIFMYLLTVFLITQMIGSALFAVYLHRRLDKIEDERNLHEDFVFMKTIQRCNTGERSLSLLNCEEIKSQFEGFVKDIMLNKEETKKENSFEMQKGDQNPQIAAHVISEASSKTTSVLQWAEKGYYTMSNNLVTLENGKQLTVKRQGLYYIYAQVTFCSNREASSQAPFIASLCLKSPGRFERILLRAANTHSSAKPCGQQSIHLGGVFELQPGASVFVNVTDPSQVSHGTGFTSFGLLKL
UniProt P08575, residues 26-1306: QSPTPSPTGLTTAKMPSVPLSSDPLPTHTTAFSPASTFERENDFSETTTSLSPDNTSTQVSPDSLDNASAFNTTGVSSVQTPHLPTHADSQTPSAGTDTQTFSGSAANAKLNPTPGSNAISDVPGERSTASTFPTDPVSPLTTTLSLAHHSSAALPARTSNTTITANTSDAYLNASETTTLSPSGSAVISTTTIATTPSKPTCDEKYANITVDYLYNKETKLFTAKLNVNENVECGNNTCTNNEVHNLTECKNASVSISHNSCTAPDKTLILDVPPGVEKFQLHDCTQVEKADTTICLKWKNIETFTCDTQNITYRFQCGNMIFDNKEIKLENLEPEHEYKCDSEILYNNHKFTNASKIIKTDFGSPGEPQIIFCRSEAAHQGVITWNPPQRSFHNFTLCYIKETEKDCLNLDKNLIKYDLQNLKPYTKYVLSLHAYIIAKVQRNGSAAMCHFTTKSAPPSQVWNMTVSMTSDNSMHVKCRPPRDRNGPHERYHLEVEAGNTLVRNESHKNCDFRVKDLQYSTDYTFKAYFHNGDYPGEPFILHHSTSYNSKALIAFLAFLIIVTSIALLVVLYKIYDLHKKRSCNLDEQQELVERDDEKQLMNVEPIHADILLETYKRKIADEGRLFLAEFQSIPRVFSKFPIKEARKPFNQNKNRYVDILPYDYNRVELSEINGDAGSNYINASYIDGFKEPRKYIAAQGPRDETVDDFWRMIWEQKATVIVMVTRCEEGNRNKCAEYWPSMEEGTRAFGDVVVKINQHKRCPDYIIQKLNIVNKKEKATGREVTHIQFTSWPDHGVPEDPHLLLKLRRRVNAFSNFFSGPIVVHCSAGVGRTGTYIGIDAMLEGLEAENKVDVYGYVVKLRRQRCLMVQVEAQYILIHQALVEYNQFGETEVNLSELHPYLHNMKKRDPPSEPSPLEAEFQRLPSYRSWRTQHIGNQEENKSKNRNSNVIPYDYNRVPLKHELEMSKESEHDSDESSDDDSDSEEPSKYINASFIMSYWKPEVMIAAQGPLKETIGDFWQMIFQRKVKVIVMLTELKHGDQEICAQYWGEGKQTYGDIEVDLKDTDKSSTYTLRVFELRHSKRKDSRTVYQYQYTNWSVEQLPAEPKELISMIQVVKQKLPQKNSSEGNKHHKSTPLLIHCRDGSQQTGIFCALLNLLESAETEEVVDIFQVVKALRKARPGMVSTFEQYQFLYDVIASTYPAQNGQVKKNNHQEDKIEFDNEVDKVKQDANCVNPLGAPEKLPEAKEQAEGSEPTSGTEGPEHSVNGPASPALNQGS

Target: CD40L (UniProt P29965)
Assay: proximity labelling

For CD45 (from UniProt P08575 26-1306), which binding is on record?
The binding was “no binding”.
